# The other results are listed elsewhere or left out. Single values are uncertain, as repeats are few or missing.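 Imaging used 1,536-well plates; nuclei positive for cleaved PARP by antibody were divided by total DNA-stained nuclei to yield the apoptosis fraction. Doses for screening kept most cells viable, and cell lines differ markedly in resting and induced cleaved-PARP levels.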
# Legend:
# Assay in all cases: cleaved PARP positive nuclei fraction relative to DMSO control; melanoma cells; higher = more apoptosis
# Details in all cases: library dose: low library concentration; 72 h
# [1] = system: CBRC034 (line from a melanoma biopsy)
# [2] = system: COLO792
# [3] = system: COLO800
# [4] = system: COLO829
# [5] = system: G361
# [6] = system: IPC-298
# [7] = system: IST-MEL1
# [8] = system: LOXIMVI
# [9] = system: LB2518-MEL
# [10] = system: MEL-HO
SMILES,cleaved PARP positive nuclei fraction [1] [%],cleaved PARP positive nuclei fraction [2] [%],cleaved PARP positive nuclei fraction [3] [%],cleaved PARP positive nuclei fraction [4] [%],cleaved PARP positive nuclei fraction [5] [%],cleaved PARP positive nuclei fraction [6] [%],cleaved PARP positive nuclei fraction [7] [%],cleaved PARP positive nuclei fraction [8] [%],cleaved PARP positive nuclei fraction [9] [%],cleaved PARP positive nuclei fraction [10] [%]
"O=C1NC(=O)/C(=C/c2ccc(-c3ccc(F)cc3O)o2)S1 + CCCCCCCCCCCC1=C(O)C(=O)C=C(O)C1=O [Embelin] (first compound 1 µM, partner dose 1.2 µM)",91.2,160,133,46.7,80.9,80,79.3,103,,
"O=C(O)c1ccc(-c2c[nH]c3ncc(-c4ccccc4)cc23)cc1C1CCCC1 + COc1cc2c(Oc3ccc4[nH]c(C)cc4c3F)ncnc2cc1OCCCN1CCCC1 [cediranib] (first compound 0.16 µM, partner dose 0.4 µM)",,128,99.7,73.1,86.1,62.1,158,62.7,90.5,99.4
"COC(=O)c1sccc1S(=O)(=O)Nc1ccc(Nc2ccccc2)cc1OC + O=C(O)C(=O)Nc1sc2c(c1C(=O)O)CCNC2 [TCS401] (first compound 1 µM, partner dose 1.66667 µM)",180,73,73.3,94,95.2,40.6,58,74.6,,
"COc1ccc(-c2ccc3c(N4CCOCC4)nc(N4C[C@@H](C)O[C@@H](C)C4)nc3n2)cc1CO + Cn1cc(/C=C2\C(=O)Nc3cccnc32)c2ccccc21 [GW441756] (first compound 0.02 µM, partner dose 0.4 µM)",90.3,98.1,72.4,101,38.6,88.2,72.7,32.8,,
"O=C(O)C(=O)Nc1sc2c(c1C(=O)O)CCNC2 + COc1cc(N2CCC(N3CCN(C)CC3)CC2)ccc1Nc1ncc(Cl)c(Nc2ccccc2S(=O)(=O)C(C)C)n1 [NVP-TAE684] (first compound 1.66667 µM, partner dose 0.08 µM)",235,84.7,120,80.3,36,87.5,265,106,,
"CN(NC(=O)CC(=O)NN(C)C(=S)c1ccccc1)C(=S)c1ccccc1 + c1cc(-c2cnn3cc(-c4ccc(OCCN5CCCCC5)cc4)cnc23)ccn1 [Dorsomorphin] (first compound 0.006 µM, partner dose 0.4 µM)",224,140,111,178,302,64.7,122,96.2,,
"O=C(Nc1ccccc1)c1cc([N+](=O)[O-])ccc1Cl + O=S(=O)(c1ccccc1)N(CC(F)(F)F)c1ccc(C(O)(C(F)(F)F)C(F)(F)F)cc1 [T0901317] (first compound 2 µM, partner dose 1.4 µM)",86,89.9,97.2,142,117,44.3,130,77.2,,
"CN(C)S(=O)(=O)c1ccc2c(c1)/C(=C/c1cc3c([nH]1)CCCC3)C(=O)N2 + NCC(=O)Nc1ccc(-n2nc(C(F)(F)F)cc2-c2ccc3c(ccc4ccccc43)c2)cc1 [OSU03012] (first compound 0.4 µM, partner dose 1 µM)",,27.7,105,124,108,197,56.9,146,76.8,76.5
"CN(NC(=O)CC(=O)NN(C)C(=S)c1ccccc1)C(=S)c1ccccc1 + N#Cc1c(O)c2c(-c3ccc(-c4ccccc4O)cc3)csc2[nH]c1=O [A769662] (first compound 0.006 µM, partner dose 2 µM)",242,96.1,145,194,279,85.6,68.2,619,,
"O=C(Nc1ccccc1)c1cc([N+](=O)[O-])ccc1Cl + Cc1cc([N+](=O)[O-])ccc1NS(=O)(=O)c1cc(Cl)ccc1Cl [FH535] (first compound 2 µM, partner dose 1 µM)",828,56.4,115,135,164,177,370,53.9,,
"COc1cc2ncnc(Nc3ccc(Oc4ccccc4)cc3)c2cc1OC + O=C1NC(=O)/C(=C/c2ccc(-c3ccc(F)cc3O)o2)S1 [AS252424] (first compound 2 µM, partner dose 1 µM)",76.1,213,70.2,85.9,53.9,44.5,82.5,67.6,,
"CN(C)S(=O)(=O)c1ccc2c(c1)/C(=C/c1cc3c([nH]1)CCCC3)C(=O)N2 + CN(NC(=O)CC(=O)NN(C)C(=S)c1ccccc1)C(=S)c1ccccc1 [STA4783] (first compound 0.4 µM, partner dose 0.006 µM)",,179,84.3,107,131,96.3,658,87.5,145,58.9
"CN(C)S(=O)(=O)c1ccc2c(c1)/C(=C/c1cc3c([nH]1)CCCC3)C(=O)N2 + CC(C)CCN1c2nc(Nc3cc(F)c(O)c(F)c3)ncc2N(C)C(=O)C1C [BID1870] (first compound 0.4 µM, partner dose 0.2 µM)",103,110,216,79.1,147,246,42.1,59.9,,
"O=C(Nc1ccccc1)c1cc([N+](=O)[O-])ccc1Cl + COc1ccc(-c2ccc3c(N4CCOCC4)nc(N4C[C@@H](C)O[C@@H](C)C4)nc3n2)cc1CO [KU0063794] (first compound 2 µM, partner dose 0.02 µM)",41.2,66.2,171,192,138,125,69.2,49.4,,
"O=C(O)c1ccc(-c2c[nH]c3ncc(-c4ccccc4)cc23)cc1C1CCCC1 + CN(NC(=O)CC(=O)NN(C)C(=S)c1ccccc1)C(=S)c1ccccc1 [STA4783] (first compound 0.16 µM, partner dose 0.006 µM)",,136,69.1,175,175,94.1,242,67.7,140,293
"CN(C)S(=O)(=O)c1ccc2c(c1)/C(=C/c1cc3c([nH]1)CCCC3)C(=O)N2 + O=C(O)c1ccc(-c2c[nH]c3ncc(-c4ccccc4)cc23)cc1C1CCCC1 [GSK650394] (first compound 0.4 µM, partner dose 0.16 µM)",,102,145,63.2,79.5,99,111,75.8,100,115
"O=C1NC(=O)/C(=C/c2ccc(-c3ccc(F)cc3O)o2)S1 + Cc1cc([N+](=O)[O-])ccc1NS(=O)(=O)c1cc(Cl)ccc1Cl [FH535] (first compound 1 µM, partner dose 1 µM)",164,131,112,85.7,58.2,91.1,195,74.2,,
"CN(NC(=O)CC(=O)NN(C)C(=S)c1ccccc1)C(=S)c1ccccc1 + COc1cc2c(Oc3ccc4[nH]c(C)cc4c3F)ncnc2cc1OCCCN1CCCC1 [cediranib] (first compound 0.006 µM, partner dose 0.4 µM)",,176,99.1,93.8,71.8,46.3,113,74.7,273,377
"COc1cc2c(Oc3ccc4[nH]c(C)cc4c3F)ncnc2cc1OCCCN1CCCC1 [cediranib] + c1cc(-c2cnn3cc(-c4ccc(OCCN5CCCCC5)cc4)cnc23)ccn1 [Dorsomorphin] (first compound 0.4 µM, partner dose 0.4 µM)",164,56.8,130,85.2,77.6,126,63.9,78.5,,
"O=C(O)c1ccc(-c2c[nH]c3ncc(-c4ccccc4)cc23)cc1C1CCCC1 + NCC(=O)Nc1ccc(-n2nc(C(F)(F)F)cc2-c2ccc3c(ccc4ccccc43)c2)cc1 [OSU03012] (first compound 0.16 µM, partner dose 1 µM)",,235,136,128,57.1,71.6,112,20.3,86.7,143
"NCC(=O)Nc1ccc(-n2nc(C(F)(F)F)cc2-c2ccc3c(ccc4ccccc43)c2)cc1 + COc1cc2c(Oc3ccc4[nH]c(C)cc4c3F)ncnc2cc1OCCCN1CCCC1 [cediranib] (first compound 1 µM, partner dose 0.4 µM)",,171,220,116,111,175,48.9,117,88.8,144
"COc1ccc2c(c1)CCC1C2CCC2(C)C(NCCCCCCN3C(=O)C=CC3=O)CCC12 (centres undefined) + COc1cc(N2CCC(N3CCN(C)CC3)CC2)ccc1Nc1ncc(Cl)c(Nc2ccccc2S(=O)(=O)C(C)C)n1 [NVP-TAE684] (first compound 0.4 µM, partner dose 0.08 µM)",121,123,160,66.7,183,75.8,102,229,,
"c1cc(-c2cnn3cc(-c4ccc(OCCN5CCCCC5)cc4)cnc23)ccn1 [Dorsomorphin] + CCCCCCCCCCCC1=C(O)C(=O)C=C(O)C1=O [Embelin] (first compound 0.4 µM, partner dose 1.2 µM)",73.2,39.3,105,98.5,124,174,169,73.5,,
"NCC(=O)Nc1ccc(-n2nc(C(F)(F)F)cc2-c2ccc3c(ccc4ccccc43)c2)cc1 + CN(NC(=O)CC(=O)NN(C)C(=S)c1ccccc1)C(=S)c1ccccc1 [STA4783] (first compound 1 µM, partner dose 0.006 µM)",,116,104,64,125,112,95.6,125,434,161
"NCC(=O)Nc1ccc(-n2nc(C(F)(F)F)cc2-c2ccc3c(ccc4ccccc43)c2)cc1 + COc1cc(N2CCC(N3CCN(C)CC3)CC2)ccc1Nc1ncc(Cl)c(Nc2ccccc2S(=O)(=O)C(C)C)n1 [NVP-TAE684] (first compound 1 µM, partner dose 0.08 µM)",187,78.7,125,167,69.2,248,188,194,,
